At least one compound was matched to its structure with a doubt left.
Tests used:
DPP4 expression [1] = test: DPP4 expression in ACHN-R cells treated with DSF and RA; assay type: cell-based, human
DPP4 expression [2] = test: DPP4 expression in 769-P-R cells treated with DSF and RA; assay type: cell-based, human
[3] = tested on: retinoic acid responsive element (RARE); test: Luciferase reporter assay of RARE of the DPP4 promoter in 293T cells; details: RA treatment
ACHN cells = test: 3D spheroid proliferation / cell survival rate assay; assay type: cell-based, human; details: ACHN cells stably overexpressing DPP4 versus control vector
Description: (§1) ACHN and 769-P, which were human RCC cell lines, were acquired from the American Type Culture Collection (ATCC), and those authenticated by short tandem repeat (STR) analysis performed by BEX CO., LTD. were used. The ACHN and 769-P cells were cultured on a DEME medium and a PRMI medium (NACALI TESQUE, INC.), respectively, to both of which 10% of FBS, 100 U/mL of penicillin, and 100 μg/mL of streptomycin were added, using an incubator set at 37° C. and 5% CO2. The ACHN and 769-P cells were exposed to sunitinib (SUN) at 10 μM max., for 6 months or longer, to produce SUN resistant RCC cell lines, ACHN-R and 769-P-R, respectively.
(§2) A cell survival rate of the cells 3 days after the drug treatment and siRNA transfection was evaluated by CellTiter-Glo 3D Assay (Promega K.K.).
(§3) FIG. 4a depicts the results of ACHN-R and the parent cell line thereof. FIG. 4b depicts the results of 769-P-R and the parent cell line thereof. […] In FIGS. 4a to 4b, moreover, “ns” represents “no significant difference.”
(§4) FIGS. 4m to 4n are diagrams depicting the results studying how the DPP4 overexpression affects the cell survival rate of the RCC spheroids treated with SUN. ACHN cells (FIG. 4m) and 769-P cells (FIG. 4n), each stably expressing a control vector (vector #1 or #2) or DPP4 (DPP4 #1 or #2) were treated with SUN, and were analyzed by an ATP-based luciferase assay. […]

769-P cells = test: as above; assay type: cell-based, human; details: 769-P cells stably overexpressing DPP4 versus control vector
Description: as §1, §2, §3, §4

ACHN-R xenograft tumor = test: Xenograft tumor model in nude mice; assay type: in vivo; details: SUN (20 mg/kg) orally alone, ACHN-R versus ACHN xenograft tumor

## CCN(CC)C(=S)SSC(=S)N(CC)CC [DSF, disulfiram]
DPP4 expression [1]; 15 μM of DSF
  expression of DPP4: expression of DPP4 was suppressed
DPP4 expression [2]; 25 μM of DSF
  expression of DPP4: expression of DPP4 was suppressed

## CC1=C(/C=C/C(C)=C/C=C/C(C)=C/C(=O)O)C(C)(C)CCC1 [RA, retinoic acid]
DPP4 expression [1]; 15 μM of DSF and 1 μM of RA
  suppression of DPP4 expression by DSF: this effect was reversed
DPP4 expression [2]; 25 μM of DSF and 1 μM of RA
  suppression of DPP4 expression by DSF: this effect was reversed
[3]; mutated RARE
  activation of mutated (Mut) RARE (luciferase reporter): activation of the mutated (Mut) RARE by the RA treatment was not observed
[3]; wild-type RARE
  transcriptional activity of wild-type RARE (luciferase reporter): transcriptional activity of the wild-type (WR) RARE in the 293T cells was increased

## CCN(CC)CCNC(=O)c1c(C)[nH]c(/C=C2\C(=O)Nc3ccc(F)cc32)c1C [SUN, sunitinib]
ACHN cells
  cell survival rate of RCC spheroids treated with SUN: recovered the cell survival rates
769-P cells
  cell survival rate of RCC spheroids treated with SUN: recovered the cell survival rates
ACHN-R xenograft tumor
  resistance of xenograft tumor to SUN: demonstrated stronger resistance to SUN
